Source: patent US20190367617A1
Results are given in words; binding and its absence hold for the method and conditions named. Some entries that bind do so weakly or less than the wild type.

By UniProt entry, the sequences of proteins in these tests, tags left out. Where a name states a change or a piece, a line headed by the entry shows the natural chain unless it says otherwise.
UniProt Q15116: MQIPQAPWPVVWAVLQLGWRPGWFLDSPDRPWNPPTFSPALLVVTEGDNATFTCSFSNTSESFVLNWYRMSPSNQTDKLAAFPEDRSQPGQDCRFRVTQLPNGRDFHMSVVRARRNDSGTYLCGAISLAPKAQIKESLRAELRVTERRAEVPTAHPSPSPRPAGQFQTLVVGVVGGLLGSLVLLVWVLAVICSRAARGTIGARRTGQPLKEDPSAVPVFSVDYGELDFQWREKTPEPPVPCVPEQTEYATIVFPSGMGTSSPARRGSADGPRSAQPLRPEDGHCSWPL

Legend:
[1] = biological target: PD-1 overexpressed on the surface of CHO cells (Homo sapiens (Human)) (UniProt Q15116); test: flow cytometry on PD-1-overexpressing CHO cells (figure legend)
[2] = biological target: PD-1 overexpressed on the surface of CHO cells (Homo sapiens (Human)) (UniProt Q15116); test: flow cytometry on PD-1-overexpressing CHO cells, FITC anti-human IgG
[3] = biological target: PD-1 overexpressed on the surface of CHO cells (Homo sapiens (Human)) (UniProt Q15116); test: flow cytometry on PD-1-overexpressing CHO cells, FITC goat anti-human IgG

Measured: binding

B1: humanized antibody AB12M3 (antibody, V domains shown)
VH: EVQLVESGGGLVQPGGSLRLSCAASGFTFSSYGMSWVRQAPGKGLEWVATISGGGRDTYYPDSVKGRFTISRDNAKNNLYLQMNSLRAEDTALYYCARQKDTSWFVHWGQGTLVTVSS
VL: EIVLTQSPATLSLSPGERATLSCRASESVDDYGISFMNWFQQKPGQAPKLLIYVASNQGSGVPARFSGSGSGTDFSLTISSLEPDDTAMYFCQQSKEVPWTFGGGTKVEIK
binds: [1] | [2] | [3]
